Results deposited as PubChem BioAssay AID1259254 (NCATS, 2017).
Aim: 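Gene knock-downs that lead to re-replication, shown by excess G2 DNA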 (primary screen). Cell system: human HCT116 colorectal cancer cells. Reagent: single siRNA against human genes. Duration: 3 days. Measured: 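Nuclei stained with Hoechst and imaged; cell-cycle phase assigned by DNA content; G2 share scaled per plate, non-targeting siRNA 0%, GMNN siRNA 100%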. Direction: G2 robust z-score and G2 cells, % of GMNN control: higher = more G2 cells, more excess DNA replication; raw share of cells in G2: higher = larger share of cells with G2 DNA content. Hit rule: 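An siRNA counts as active if its G2 robust z-score lies at least 5 MADs above the screen median; here such calls match roughly 38% of GMNN control or more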.
Shown is a random part of about 59,000 reagents. About 1,550 of them (2.6%) count as active. 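G2 share is only a proxy for re-replication; each gene was hit by three separate siRNAs, and active genes were retested.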 Raw values vary from plate to plate and are shown uncorrected. The numbers tell different reagents against one gene apart. Not stated in the record: the amount of reagent.

| target | reagent | G2 robust z-score | G2 cells, % of GMNN control | raw share of cells in G2 (%) | outcome |
| --- | --- | --- | --- | --- | --- |
| GNG3 (G protein subunit gamma 3) | 1 | -1.23 | -5.66 | 3.18 | inactive |
| GNG3 (G protein subunit gamma 3) | 2 | -0.236 | 1.31 | 4.12 | inactive |
| GNG3 (G protein subunit gamma 3) | 3 | 1.69 | 14.9 | 10.9 | inactive |
| LINC00598 (long independently transcribed non-coding RNA 598) | 1 | -0.959 | -3.78 | 1.82 | inactive |
| LINC00598 (long independently transcribed non-coding RNA 598) | 2 | 0.755 | 8.28 | 5.67 | inactive |
| LINC00598 (long independently transcribed non-coding RNA 598) | 3 | -0.176 | 1.73 | 4.43 | inactive |
| BIRC8 (baculoviral IAP repeat containing 8) | 1 | 0.251 | 4.74 | 7.87 | inactive |
| BIRC8 (baculoviral IAP repeat containing 8) | 2 | -1.07 | -4.53 | 3.02 | inactive |
| BIRC8 (baculoviral IAP repeat containing 8) | 3 | -0.116 | 2.15 | 5.29 | inactive |
| BPIFA2 (BPI fold containing family A member 2) | 1 | 0.663 | 7.63 | 7.05 | inactive |
| BPIFA2 (BPI fold containing family A member 2) | 2 | 1.43 | 13 | 7.23 | inactive |
| BPIFA2 (BPI fold containing family A member 2) | 3 | -0.756 | -2.35 | 1.73 | inactive |
| ASTN1 (astrotactin 1) | 1 | -0.518 | -0.679 | 4.98 | inactive |
| ASTN1 (astrotactin 1) | 2 | -0.449 | -0.195 | 4.02 | inactive |
| ASTN1 (astrotactin 1) | 3 | -0.295 | 0.894 | 3.87 | inactive |
| ATF6B (activating transcription factor 6 beta) | 1 | 1.63 | 14.4 | 9.07 | inactive |
| ATF6B (activating transcription factor 6 beta) | 2 | -0.0463 | 2.64 | 5.96 | inactive |
| ATF6B (activating transcription factor 6 beta) | 3 | -0.522 | -0.708 | 4.71 | inactive |
| SPIN1 (spindlin 1) | 1 | 0.957 | 9.7 | 8.79 | inactive |
| SPIN1 (spindlin 1) | 2 | -0.00469 | 2.93 | 5.35 | inactive |
| SPIN1 (spindlin 1) | 3 | -0.707 | -2.01 | 2.42 | inactive |
| GMPPA (GDP-mannose pyrophosphorylase A) | 1 | 0.0738 | 3.49 | 5.34 | inactive |
| GMPPA (GDP-mannose pyrophosphorylase A) | 2 | 0.267 | 4.85 | 5.58 | inactive |
| GMPPA (GDP-mannose pyrophosphorylase A) | 3 | 0.429 | 5.99 | 8.88 | inactive |
| LINC00174 (long independently transcribed non-coding RNA 174) | 1 | -0.0676 | 2.49 | 4.55 | inactive |
| LINC00174 (long independently transcribed non-coding RNA 174) | 2 | -0.448 | -0.187 | 2.97 | inactive |
| LINC00174 (long independently transcribed non-coding RNA 174) | 3 | -0.477 | -0.386 | 3.15 | inactive |
| MZF1 (myeloid zinc finger 1) | 1 | -0.851 | -3.02 | 2.52 | inactive |
| MZF1 (myeloid zinc finger 1) | 2 | 1.4 | 12.8 | 11.7 | inactive |
| MZF1 (myeloid zinc finger 1) | 3 | 0.429 | 5.98 | 5.85 | inactive |
| MAPK1IP1L | 1 | -0.367 | 0.384 | 4.25 | inactive |
| MAPK1IP1L | 2 | -0.88 | -3.23 | 2.37 | inactive |
| MAPK1IP1L | 3 | 0.575 | 7.01 | 3.87 | inactive |
| SYN1 (synapsin I) | 1 | -0.768 | -2.43 | 4.86 | inactive |
| SYN1 (synapsin I) | 2 | -0.839 | -2.94 | 3.54 | inactive |
| SYN1 (synapsin I) | 3 | 0.167 | 4.14 | 5.33 | inactive |
| PLPPR2 (phospholipid phosphatase related 2) | 1 | -0.449 | -0.19 | 3.44 | inactive |
| PLPPR2 (phospholipid phosphatase related 2) | 2 | 1.12 | 10.9 | 8.33 | inactive |
| PLPPR2 (phospholipid phosphatase related 2) | 3 | 0.345 | 5.4 | 5.93 | inactive |
| PITX1 (paired like homeodomain 1) | 1 | 0.149 | 4.01 | 6.1 | inactive |
| PITX1 (paired like homeodomain 1) | 2 | -0.944 | -3.68 | 3.2 | inactive |
| PITX1 (paired like homeodomain 1) | 3 | 0.14 | 3.95 | 4.69 | inactive |
| SLCO1A2 | 1 | -0.717 | -2.08 | 3.83 | inactive |
| SLCO1A2 | 2 | 0.221 | 4.52 | 5.45 | inactive |
| SLCO1A2 | 3 | 6.93 | 51.7 | 23.1 | active |
| PAH (phenylalanine hydroxylase) | 1 | -0.748 | -2.3 | 4.33 | inactive |
| PAH (phenylalanine hydroxylase) | 2 | -0.471 | -0.348 | 4.61 | inactive |
| PAH (phenylalanine hydroxylase) | 3 | -0.562 | -0.985 | 2.86 | inactive |
| DOK4 (docking protein 4) | 1 | -1.23 | -5.67 | 2.35 | inactive |
| DOK4 (docking protein 4) | 2 | -0.429 | -0.0494 | 4.12 | inactive |
| DOK4 (docking protein 4) | 3 | -0.385 | 0.257 | 3.22 | inactive |
| ESYT3 (extended synaptotagmin 3) | 1 | 4.53 | 34.8 | 15.7 | inactive |
| ESYT3 (extended synaptotagmin 3) | 2 | 0.875 | 9.12 | 6.16 | inactive |
| ESYT3 (extended synaptotagmin 3) | 3 | 1.46 | 13.2 | 6.42 | inactive |
| BBX (BBX high mobility group box domain containing) | 1 | 3.68 | 28.9 | 19.1 | inactive |
| BBX (BBX high mobility group box domain containing) | 2 | -0.829 | -2.86 | 3.41 | inactive |
| BBX (BBX high mobility group box domain containing) | 3 | 0.553 | 6.86 | 7.19 | inactive |
| MRPS17 (mitochondrial ribosomal protein S17) | 1 | 0.433 | 6.02 | 8.68 | inactive |
| MRPS17 (mitochondrial ribosomal protein S17) | 2 | 0.505 | 6.52 | 6.65 | inactive |
| MRPS17 (mitochondrial ribosomal protein S17) | 3 | -0.77 | -2.45 | 2.86 | inactive |
| GKAP1 (G kinase anchoring protein 1) | 1 | 2.42 | 20 | 11.4 | inactive |
| GKAP1 (G kinase anchoring protein 1) | 2 | -0.206 | 1.51 | 5.35 | inactive |
| GKAP1 (G kinase anchoring protein 1) | 3 | 1.31 | 12.2 | 10.5 | inactive |
| SCNN1G (sodium channel epithelial 1 subunit gamma) | 1 | 0.104 | 3.7 | 6.64 | inactive |
| SCNN1G (sodium channel epithelial 1 subunit gamma) | 2 | -0.397 | 0.176 | 4.84 | inactive |
| SCNN1G (sodium channel epithelial 1 subunit gamma) | 3 | -0.853 | -3.03 | 3.19 | inactive |
| CLCN7 (Cl-/H+ antiporter 7) | 1 | 0.237 | 4.64 | 6.98 | inactive |
| CLCN7 (Cl-/H+ antiporter 7) | 2 | -0.556 | -0.944 | 4.46 | inactive |
| CLCN7 (Cl-/H+ antiporter 7) | 3 | 3.98 | 31 | 16.5 | inactive |
